Results deposited as PubChem BioAssay AID743121 (NCATS, 2013).
This is an unselected part of about 26,000 reagents tested. 167 of them (0.63%) were called active. 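Calls are per gene from RSA p-values that are not deposited; an individual active-marked siRNA can sensitise only weakly.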 A number with no mark means an inactive call. The numbers tell different reagents against one gene apart. Further read-outs or replicates are left out here.

Purpose: 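Partners whose loss is lethal together with topoisomerase I blockade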 (primary screen)
Cells: MDA-MB-231 cells, a human breast cancer line
Reagents: single siRNA against human genes, 20 nM siRNA (0.8 pmol per well)
Duration: 120 h (drug added 48 h after transfection, read 72 h later)
Conditions: camptothecin 20 nM (about EC30) for 72 h; vehicle 0.1% DMSO in parallel plates
Measurement: 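Cell viability by ATP luminescence (CellTiter-Glo) as % of non-targeting siRNA wells, and the log2 ratio of viability without drug over viability with camptothecin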
Direction: log2 vehicle/camptothecin viability: higher = stronger sensitisation to camptothecin
Rule for the call: 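Each gene scored by redundant siRNA activity (RSA) over its individual siRNA ratios; a gene is called active at p < 0.001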

target gene,siRNA no.,log2 vehicle/camptothecin viability
NCF2 (neutrophil cytosolic factor 2),1,-0.504
NCF2 (neutrophil cytosolic factor 2),2,0.104
NCF2 (neutrophil cytosolic factor 2),3,-0.059
NCF2 (neutrophil cytosolic factor 2),4,-0.11
SCARA5 (scavenger receptor class A member 5),1,-0.332
SCARA5 (scavenger receptor class A member 5),2,1.24
SCARA5 (scavenger receptor class A member 5),3,0.0137
SCARA5 (scavenger receptor class A member 5),4,-0.334
PHLPP1 (PH domain and leucine rich repeat protein phosphatase 1),1,-0.514
PHLPP1 (PH domain and leucine rich repeat protein phosphatase 1),2,0.116
PHLPP1 (PH domain and leucine rich repeat protein phosphatase 1),3,0.404
PHLPP1 (PH domain and leucine rich repeat protein phosphatase 1),4,-0.00549

4 entries already listed, sorted by “log2 vehicle/camptothecin viability”, highest first:
target gene,siRNA no.,log2 vehicle/camptothecin viability
NCF2 (neutrophil cytosolic factor 2),2,0.104
NCF2 (neutrophil cytosolic factor 2),3,-0.059
NCF2 (neutrophil cytosolic factor 2),4,-0.11
NCF2 (neutrophil cytosolic factor 2),1,-0.504

Continued.
target gene,siRNA no.,log2 vehicle/camptothecin viability
PIK3R2 (phosphoinositide-3-kinase regulatory subunit 2),1,0.0956
PIK3R2 (phosphoinositide-3-kinase regulatory subunit 2),2,-0.454
PIK3R2 (phosphoinositide-3-kinase regulatory subunit 2),3,0.663
PIK3R2 (phosphoinositide-3-kinase regulatory subunit 2),4,0.183
GZMK (granzyme K),1,0.0986
GZMK (granzyme K),2,-0.15
GZMK (granzyme K),3,-0.19
GZMK (granzyme K),4,-0.12
ADCK5 (aarF domain containing kinase 5),1,-0.432
ADCK5 (aarF domain containing kinase 5),2,-0.458
ADCK5 (aarF domain containing kinase 5),3,-0.598
ADCK5 (aarF domain containing kinase 5),4,-0.0412
TAS2R43 (taste 2 receptor member 43),1,0.477
TAS2R43 (taste 2 receptor member 43),2,0.668
TAS2R43 (taste 2 receptor member 43),3,-0.4
TAS2R43 (taste 2 receptor member 43),4,-0.0419
